The values that follow come from US20150183820A1.

The target of test [1] is Fc region of human immunoglobulin (human). Description: SPR, KD from 1:1 Langmuir fit at each pH, human Fc immobilised; plotted as 1/KD against pH. A general note: In SPR one partner is held on a chip, and binding of the other changes the refractive index at the surface.
For test [2] the target is unchanged. Put plainly: SPR, KD at each pH standardised by KD at pH 7.4, human Fc immobilised.

Numbering of substitutions follows the chain as printed. Results are given in words; binding and its absence hold for the method and conditions named. Binding calls can cover weak binding; strength is not graded here.

B1: M-PG19 (designed binder)
chain: MDTYKLILNGKTLKGETTTEAVDAATAEKVFKHYANEHGVHGHWTYDPETKTFTVTE
Take B1: the binding entry in test [1] and in test [2] was “binds” in each case.

B2: M-PG07 (designed binder)
chain: B1 chain with H33Q, H41D, H43E
As to B2, the binding entry in test [1] and in test [2] was “binds” in each case.
